Measured values: US20240280563A1, “SYSTEMS AND METHODS FOR ION CHANNEL KINETICS ANALYSIS IN CLUSTERS OF ION CHANNELS” (Ohio State Innovation Foundation, priority 2023, published 2024)

Chains of the proteins cited; added tags and fusions are not shown.
UniProt Q14524, whole entry: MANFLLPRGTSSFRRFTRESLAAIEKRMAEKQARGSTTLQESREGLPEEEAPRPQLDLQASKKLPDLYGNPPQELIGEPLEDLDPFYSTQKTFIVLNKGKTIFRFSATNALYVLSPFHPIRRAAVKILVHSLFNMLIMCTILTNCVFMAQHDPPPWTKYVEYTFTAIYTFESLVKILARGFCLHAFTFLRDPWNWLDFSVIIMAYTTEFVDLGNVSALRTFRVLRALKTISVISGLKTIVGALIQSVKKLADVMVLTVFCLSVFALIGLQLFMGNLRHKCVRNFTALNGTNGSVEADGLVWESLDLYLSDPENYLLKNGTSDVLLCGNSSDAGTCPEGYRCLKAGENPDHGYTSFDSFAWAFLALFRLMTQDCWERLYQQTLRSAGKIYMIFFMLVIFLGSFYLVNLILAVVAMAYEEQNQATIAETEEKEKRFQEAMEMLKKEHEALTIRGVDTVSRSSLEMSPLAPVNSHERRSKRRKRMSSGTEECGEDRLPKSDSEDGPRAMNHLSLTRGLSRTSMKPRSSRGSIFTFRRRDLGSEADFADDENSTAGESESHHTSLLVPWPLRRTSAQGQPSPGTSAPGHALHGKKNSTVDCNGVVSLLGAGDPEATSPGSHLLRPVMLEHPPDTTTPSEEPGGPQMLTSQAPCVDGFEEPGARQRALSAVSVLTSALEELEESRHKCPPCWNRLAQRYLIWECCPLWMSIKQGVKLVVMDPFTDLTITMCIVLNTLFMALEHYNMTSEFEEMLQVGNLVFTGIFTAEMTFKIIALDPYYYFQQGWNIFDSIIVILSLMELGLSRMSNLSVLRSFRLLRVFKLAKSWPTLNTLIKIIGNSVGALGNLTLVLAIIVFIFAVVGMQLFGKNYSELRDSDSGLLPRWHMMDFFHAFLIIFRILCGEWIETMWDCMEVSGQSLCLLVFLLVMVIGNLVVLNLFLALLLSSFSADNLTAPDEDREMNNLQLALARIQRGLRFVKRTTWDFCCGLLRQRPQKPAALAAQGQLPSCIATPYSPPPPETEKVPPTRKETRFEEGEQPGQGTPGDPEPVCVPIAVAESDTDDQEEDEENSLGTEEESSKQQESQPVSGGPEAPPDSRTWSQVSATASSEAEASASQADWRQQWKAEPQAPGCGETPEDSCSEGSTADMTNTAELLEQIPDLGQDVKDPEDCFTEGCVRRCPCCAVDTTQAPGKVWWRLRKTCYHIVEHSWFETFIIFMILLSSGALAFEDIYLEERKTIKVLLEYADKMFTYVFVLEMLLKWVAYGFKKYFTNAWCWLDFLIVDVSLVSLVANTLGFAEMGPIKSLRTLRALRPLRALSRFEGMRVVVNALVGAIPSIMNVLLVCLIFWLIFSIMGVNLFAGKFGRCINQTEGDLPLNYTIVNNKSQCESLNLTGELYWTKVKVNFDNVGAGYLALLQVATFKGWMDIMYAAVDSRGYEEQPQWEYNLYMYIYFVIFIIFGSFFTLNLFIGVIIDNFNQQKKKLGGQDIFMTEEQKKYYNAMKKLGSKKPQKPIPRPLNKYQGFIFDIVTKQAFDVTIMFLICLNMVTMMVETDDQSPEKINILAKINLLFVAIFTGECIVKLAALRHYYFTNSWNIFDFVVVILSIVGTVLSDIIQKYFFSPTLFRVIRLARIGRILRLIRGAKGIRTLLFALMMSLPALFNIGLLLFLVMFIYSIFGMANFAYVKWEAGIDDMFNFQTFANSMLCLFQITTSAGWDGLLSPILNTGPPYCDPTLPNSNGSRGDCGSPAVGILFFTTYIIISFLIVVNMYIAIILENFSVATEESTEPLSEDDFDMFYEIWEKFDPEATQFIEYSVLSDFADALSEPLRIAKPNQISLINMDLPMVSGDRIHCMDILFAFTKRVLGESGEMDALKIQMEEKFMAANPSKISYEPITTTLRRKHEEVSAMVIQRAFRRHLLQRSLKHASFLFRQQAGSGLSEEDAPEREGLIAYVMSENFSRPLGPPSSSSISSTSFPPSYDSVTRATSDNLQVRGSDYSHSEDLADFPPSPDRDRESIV

Target: NaV1.5 (Homo sapiens, UniProt Q14524)
Conditions: lidocaine 50 Um, 5 minute incubation; multichannel vs single channel patches; ratio of ensemble average peak current after lidocaine (Ilido) to before (Ictr)

## CCN(CC)CC(=O)Nc1c(C)cccc1C [lidocaine]
  potency of lidocaine lower for channel operating in clusters relative to channels operating outside of clusters: ~40%
